Ki data for 2 compounds are collected here from paper PMC9693918, “May Sulfonamide Inhibitors of Carbonic Anhydrases from Mammaliicoccus sciuri Prevent Antimicrobial Resistance Due to Gene Transfer to Other Harmful Staphylococci?” (International Journal of Molecular Sciences, 2022).

The assay has as its target T1, MscCAγ (M. sciuri γ-CA) (Mammaliicoccus sciuri, UniProt A0AB37HNM1).
T1 construct: gene OWO77_11715
T1 sequence (A0AB37HNM1 1-169): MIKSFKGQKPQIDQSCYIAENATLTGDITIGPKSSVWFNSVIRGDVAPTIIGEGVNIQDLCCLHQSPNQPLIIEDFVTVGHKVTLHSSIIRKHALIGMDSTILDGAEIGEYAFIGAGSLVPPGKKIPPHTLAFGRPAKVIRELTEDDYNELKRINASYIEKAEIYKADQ
The assay is described as follows: stopped-flow CO2 hydration assay, phenol red. The format is biochemical. From the text: stopped-flow CO2 hydration assay, phenol red on MscCAγ (M. sciuri γ-CA)

The term Ki denotes a measure of affinity in units of concentration, obtained from inhibition or displacement. Read a low Ki as higher affinity. Compound `CC(=O)Nc1nnc(S(N)(=O)=O)s1` [AAZ, acetazolamide] registered a Ki of 245 nM.
As for `CCN[C@H]1C[C@H](C)S(=O)(=O)c2sc(S(N)(=O)=O)cc21` [DZA], the figure is 43.8 nM.
